Article PMC10914751

Protein sequences, listed by entry. Tags and fused reporters are not part of them.
UniProt Q13620: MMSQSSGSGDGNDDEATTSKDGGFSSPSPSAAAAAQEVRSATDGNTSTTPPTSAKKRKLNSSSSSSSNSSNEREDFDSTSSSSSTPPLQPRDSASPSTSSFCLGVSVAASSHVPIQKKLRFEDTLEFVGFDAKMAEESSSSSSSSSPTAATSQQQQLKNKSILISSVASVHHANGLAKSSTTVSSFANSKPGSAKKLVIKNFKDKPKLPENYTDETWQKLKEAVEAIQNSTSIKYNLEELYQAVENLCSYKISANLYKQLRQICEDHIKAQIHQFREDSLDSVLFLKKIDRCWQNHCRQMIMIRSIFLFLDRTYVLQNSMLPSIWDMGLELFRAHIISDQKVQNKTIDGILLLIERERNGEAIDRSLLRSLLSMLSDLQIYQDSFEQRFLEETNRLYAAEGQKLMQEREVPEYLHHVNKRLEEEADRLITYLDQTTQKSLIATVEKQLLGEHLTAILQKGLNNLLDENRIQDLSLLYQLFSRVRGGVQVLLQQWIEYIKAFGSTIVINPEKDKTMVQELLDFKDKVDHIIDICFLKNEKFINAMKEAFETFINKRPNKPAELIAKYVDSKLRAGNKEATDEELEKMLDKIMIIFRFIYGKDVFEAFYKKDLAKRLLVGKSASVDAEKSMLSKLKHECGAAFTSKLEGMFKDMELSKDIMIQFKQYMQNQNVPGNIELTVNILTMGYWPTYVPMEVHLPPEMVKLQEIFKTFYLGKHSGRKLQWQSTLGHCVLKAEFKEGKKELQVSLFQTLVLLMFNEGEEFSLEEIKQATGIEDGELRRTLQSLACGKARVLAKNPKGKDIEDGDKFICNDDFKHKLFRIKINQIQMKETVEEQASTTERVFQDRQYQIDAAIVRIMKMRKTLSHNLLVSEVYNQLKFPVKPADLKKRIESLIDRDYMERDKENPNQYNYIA
UniProt O94986: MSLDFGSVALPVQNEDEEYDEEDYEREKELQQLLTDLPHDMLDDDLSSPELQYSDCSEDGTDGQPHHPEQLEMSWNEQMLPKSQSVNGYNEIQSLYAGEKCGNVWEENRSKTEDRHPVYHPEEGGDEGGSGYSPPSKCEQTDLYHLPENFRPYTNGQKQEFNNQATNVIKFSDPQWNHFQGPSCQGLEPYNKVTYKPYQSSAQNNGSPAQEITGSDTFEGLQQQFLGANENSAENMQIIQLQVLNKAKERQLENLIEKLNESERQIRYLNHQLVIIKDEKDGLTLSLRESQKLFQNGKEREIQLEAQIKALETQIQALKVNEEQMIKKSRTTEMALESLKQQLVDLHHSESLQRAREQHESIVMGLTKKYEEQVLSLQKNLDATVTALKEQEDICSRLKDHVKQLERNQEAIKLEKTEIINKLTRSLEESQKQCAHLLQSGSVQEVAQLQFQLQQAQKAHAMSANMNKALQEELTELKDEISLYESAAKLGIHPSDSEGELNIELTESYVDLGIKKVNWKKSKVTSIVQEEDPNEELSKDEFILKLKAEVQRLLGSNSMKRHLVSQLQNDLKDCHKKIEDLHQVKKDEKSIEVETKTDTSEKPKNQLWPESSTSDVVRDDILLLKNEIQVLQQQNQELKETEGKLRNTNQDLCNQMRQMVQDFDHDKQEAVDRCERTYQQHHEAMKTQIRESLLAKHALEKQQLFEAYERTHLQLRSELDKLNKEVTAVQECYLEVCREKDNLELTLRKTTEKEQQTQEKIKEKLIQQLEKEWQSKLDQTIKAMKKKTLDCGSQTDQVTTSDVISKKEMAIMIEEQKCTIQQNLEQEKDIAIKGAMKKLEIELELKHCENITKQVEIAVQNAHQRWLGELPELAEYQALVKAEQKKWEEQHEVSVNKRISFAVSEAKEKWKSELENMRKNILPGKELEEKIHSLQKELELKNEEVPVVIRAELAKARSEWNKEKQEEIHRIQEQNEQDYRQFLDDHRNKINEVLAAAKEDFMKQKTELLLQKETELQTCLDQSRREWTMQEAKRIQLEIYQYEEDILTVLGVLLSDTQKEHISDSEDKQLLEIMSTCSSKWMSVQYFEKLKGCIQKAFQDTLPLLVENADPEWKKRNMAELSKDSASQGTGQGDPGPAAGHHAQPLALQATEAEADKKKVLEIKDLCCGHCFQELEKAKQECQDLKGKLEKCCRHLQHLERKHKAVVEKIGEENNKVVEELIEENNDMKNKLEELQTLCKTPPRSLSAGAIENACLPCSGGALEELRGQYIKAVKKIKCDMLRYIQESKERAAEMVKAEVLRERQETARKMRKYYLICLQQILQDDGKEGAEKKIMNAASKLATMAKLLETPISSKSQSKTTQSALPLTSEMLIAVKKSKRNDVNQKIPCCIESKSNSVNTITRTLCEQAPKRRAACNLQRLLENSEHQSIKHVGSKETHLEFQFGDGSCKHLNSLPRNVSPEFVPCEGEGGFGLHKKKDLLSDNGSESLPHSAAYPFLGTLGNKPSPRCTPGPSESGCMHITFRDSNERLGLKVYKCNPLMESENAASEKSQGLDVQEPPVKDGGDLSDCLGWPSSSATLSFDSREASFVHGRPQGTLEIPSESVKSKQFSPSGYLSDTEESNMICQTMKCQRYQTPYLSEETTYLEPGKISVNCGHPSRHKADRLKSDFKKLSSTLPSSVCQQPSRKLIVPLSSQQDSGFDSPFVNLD
UniProt Q9Y4B6: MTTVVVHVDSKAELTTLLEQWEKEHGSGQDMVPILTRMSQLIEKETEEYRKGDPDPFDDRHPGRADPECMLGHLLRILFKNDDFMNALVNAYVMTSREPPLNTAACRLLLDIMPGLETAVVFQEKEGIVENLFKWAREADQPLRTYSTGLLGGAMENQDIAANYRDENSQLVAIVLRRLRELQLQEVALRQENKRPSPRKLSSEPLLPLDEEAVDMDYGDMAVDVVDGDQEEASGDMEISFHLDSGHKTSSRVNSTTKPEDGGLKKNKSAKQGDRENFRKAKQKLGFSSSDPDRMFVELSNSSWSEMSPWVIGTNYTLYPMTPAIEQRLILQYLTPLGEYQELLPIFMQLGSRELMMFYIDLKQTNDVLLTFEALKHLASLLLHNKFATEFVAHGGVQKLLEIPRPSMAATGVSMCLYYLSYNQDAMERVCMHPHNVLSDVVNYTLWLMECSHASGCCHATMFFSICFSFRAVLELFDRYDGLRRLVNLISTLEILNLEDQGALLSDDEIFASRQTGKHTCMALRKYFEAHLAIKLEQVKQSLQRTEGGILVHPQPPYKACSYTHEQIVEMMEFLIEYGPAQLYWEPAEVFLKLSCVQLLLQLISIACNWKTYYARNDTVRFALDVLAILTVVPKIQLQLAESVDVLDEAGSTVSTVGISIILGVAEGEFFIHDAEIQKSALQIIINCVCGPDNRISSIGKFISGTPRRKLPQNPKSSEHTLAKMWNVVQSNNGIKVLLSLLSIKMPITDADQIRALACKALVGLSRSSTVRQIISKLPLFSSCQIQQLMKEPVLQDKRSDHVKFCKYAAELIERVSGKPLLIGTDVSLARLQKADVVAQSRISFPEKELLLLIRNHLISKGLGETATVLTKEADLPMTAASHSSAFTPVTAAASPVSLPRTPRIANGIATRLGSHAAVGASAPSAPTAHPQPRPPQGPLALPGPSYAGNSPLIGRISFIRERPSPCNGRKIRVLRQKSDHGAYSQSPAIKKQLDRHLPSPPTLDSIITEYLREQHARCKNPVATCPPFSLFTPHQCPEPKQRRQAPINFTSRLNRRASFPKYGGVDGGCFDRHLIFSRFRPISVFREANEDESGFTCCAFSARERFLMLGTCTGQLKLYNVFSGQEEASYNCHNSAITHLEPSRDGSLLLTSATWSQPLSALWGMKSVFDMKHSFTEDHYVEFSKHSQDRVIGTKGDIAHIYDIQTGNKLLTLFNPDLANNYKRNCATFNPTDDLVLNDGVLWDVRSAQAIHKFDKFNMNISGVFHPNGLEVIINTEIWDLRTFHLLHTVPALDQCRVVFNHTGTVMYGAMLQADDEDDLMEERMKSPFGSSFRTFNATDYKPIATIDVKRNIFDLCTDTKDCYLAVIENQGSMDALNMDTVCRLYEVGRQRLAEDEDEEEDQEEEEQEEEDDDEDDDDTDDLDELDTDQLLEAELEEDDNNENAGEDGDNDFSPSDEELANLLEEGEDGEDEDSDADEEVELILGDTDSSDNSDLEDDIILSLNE
UniProt Q13619: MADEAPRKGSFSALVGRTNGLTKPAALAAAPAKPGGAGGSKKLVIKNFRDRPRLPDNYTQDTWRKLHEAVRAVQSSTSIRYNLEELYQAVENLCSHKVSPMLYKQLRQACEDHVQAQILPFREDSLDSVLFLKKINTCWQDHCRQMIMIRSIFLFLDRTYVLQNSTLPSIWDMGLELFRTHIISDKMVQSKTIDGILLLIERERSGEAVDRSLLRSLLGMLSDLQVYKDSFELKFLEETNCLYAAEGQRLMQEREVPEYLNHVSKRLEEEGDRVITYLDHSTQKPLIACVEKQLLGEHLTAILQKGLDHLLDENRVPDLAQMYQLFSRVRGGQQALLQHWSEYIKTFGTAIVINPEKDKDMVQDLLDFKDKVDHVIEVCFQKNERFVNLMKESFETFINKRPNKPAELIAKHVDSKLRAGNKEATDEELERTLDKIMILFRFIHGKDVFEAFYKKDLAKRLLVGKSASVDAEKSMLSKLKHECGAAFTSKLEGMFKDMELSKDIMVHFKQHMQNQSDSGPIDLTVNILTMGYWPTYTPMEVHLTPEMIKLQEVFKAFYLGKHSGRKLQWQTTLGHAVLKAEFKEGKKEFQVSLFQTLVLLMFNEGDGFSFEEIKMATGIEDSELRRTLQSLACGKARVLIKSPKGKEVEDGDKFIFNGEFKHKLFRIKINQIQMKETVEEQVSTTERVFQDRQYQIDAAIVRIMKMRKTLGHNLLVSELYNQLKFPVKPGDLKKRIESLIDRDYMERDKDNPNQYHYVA
UniProt Q16531: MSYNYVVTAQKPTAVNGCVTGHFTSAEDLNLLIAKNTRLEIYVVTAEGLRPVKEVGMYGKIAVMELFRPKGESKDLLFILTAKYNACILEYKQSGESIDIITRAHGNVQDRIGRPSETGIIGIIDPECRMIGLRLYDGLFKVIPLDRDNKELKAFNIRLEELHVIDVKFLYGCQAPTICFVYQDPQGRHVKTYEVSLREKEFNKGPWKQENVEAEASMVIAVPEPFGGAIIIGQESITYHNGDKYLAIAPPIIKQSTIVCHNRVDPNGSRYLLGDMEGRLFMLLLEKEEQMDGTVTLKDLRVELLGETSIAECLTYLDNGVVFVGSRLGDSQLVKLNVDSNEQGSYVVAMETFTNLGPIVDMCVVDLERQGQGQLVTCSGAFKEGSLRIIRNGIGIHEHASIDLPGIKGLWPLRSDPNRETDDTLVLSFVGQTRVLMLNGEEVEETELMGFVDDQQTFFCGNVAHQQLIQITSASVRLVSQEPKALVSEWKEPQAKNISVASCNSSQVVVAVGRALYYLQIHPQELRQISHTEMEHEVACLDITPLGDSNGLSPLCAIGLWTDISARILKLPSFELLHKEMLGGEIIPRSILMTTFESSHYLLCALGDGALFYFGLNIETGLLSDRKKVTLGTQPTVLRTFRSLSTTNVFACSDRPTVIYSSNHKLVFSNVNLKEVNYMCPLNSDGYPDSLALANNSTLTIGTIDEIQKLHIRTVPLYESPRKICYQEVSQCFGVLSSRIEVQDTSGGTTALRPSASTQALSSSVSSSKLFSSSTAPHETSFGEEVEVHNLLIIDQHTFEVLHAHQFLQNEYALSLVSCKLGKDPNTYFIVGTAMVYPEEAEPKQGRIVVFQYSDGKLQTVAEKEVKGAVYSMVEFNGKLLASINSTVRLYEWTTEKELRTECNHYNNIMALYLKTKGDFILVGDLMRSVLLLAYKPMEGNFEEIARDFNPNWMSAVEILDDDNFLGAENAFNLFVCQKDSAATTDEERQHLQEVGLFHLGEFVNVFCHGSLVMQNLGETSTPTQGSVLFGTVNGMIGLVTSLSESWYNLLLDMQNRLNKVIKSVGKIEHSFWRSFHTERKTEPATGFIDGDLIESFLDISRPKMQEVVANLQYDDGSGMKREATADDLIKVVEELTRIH

Tests used:
[1] = biological target: T1, FLAG-tagged Plk4 CTD (581–970) (UniProt O00444); test: affinity purification with mass spectrometry; FLAG-tagged Plk4 CTD(581–970) stably expressed in HEK293T cells, anti-FLAG immunoprecipitation; SDS-PAGE bands, nanoLC-tandem MS (Expt. 2)
T1 sequence: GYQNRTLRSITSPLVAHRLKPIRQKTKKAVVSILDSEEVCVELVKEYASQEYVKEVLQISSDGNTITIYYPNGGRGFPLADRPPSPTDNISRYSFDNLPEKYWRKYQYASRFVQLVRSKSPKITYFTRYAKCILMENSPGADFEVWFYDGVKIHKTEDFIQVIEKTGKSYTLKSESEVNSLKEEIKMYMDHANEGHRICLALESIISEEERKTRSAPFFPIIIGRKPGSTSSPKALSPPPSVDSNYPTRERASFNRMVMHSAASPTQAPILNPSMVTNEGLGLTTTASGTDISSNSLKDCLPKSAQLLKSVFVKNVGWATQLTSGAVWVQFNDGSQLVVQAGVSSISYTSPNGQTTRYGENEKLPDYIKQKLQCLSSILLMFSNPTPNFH

[2] = biological target: T2, ZZ-tagged Plk4 CPB (581–884) (UniProt O00444); test: affinity purification with mass spectrometry; ZZ-tagged Plk4 CPB(581–884) in lysate of transfected HEK293T cells, human IgG column, AcTEV digestion, elution with TBSN buffer; SDS-PAGE bands, nanoLC-tandem MS (Expt. 1)
T2 sequence: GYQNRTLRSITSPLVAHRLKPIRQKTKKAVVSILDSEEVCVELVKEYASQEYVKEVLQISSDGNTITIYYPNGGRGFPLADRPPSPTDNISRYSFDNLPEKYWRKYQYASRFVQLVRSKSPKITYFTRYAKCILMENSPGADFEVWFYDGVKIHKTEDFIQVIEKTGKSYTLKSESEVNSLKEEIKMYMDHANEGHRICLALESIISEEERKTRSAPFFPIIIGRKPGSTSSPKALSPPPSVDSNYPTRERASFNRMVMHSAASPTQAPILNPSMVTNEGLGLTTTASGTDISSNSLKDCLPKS

Row | binding [1] | binding [2] | Substance
1 | no binding | no binding | CUL4B (endogenous) (from UniProt Q13620 1-913)
2 | binds | binds | Cep152 (endogenous) (from UniProt O94986 1-1710)
3 | binds | binds | VprBP (endogenous) (from UniProt Q9Y4B6 1-1507)
4 | no binding | no binding | CUL4A (endogenous) (from UniProt Q13619 1-759)
5 | binds | binds | DDB1 (endogenous) (from UniProt Q16531 1-1140)

Results are given in words; binding and its absence hold for the method and conditions named. In cells and extracts the contact can be indirect. These calls come from enrichment with a bait or labelling near it, and not all partners need be listed. No binding means not detected with the bait. Where a sequence is shown, tags or fusion partners need not be part of it.
